# Test results taken from paper PMC5931457.
# Molecular target: T1, MYC-tagged full-length RIPK4 (human) (UniProt P57078)
# T1 sequence: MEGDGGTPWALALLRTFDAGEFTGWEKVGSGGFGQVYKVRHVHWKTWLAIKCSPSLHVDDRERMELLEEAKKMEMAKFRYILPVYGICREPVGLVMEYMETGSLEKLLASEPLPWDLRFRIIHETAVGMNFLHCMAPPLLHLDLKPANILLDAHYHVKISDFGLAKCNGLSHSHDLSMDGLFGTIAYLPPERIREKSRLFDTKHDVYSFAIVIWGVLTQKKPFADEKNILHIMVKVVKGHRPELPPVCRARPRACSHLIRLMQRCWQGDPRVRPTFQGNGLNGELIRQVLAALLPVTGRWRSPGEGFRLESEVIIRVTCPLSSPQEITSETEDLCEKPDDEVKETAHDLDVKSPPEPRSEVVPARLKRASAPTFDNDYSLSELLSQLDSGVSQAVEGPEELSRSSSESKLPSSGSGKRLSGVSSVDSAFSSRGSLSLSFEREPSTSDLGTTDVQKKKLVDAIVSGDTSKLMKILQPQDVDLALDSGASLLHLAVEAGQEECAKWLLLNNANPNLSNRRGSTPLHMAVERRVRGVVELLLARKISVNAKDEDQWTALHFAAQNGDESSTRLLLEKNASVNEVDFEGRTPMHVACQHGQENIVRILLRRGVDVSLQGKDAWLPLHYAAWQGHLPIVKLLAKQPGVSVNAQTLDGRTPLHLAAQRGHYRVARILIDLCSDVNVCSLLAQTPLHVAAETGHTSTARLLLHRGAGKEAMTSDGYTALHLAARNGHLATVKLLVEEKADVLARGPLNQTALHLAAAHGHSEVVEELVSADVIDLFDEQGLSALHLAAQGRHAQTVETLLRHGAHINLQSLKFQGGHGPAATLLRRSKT
# Test: co-IP; FLAG-tagged A20 and MYC-tagged RIPK4 constructs expressed in RKO cells; immunoprecipitation with anti-MYC, blot anti-FLAG (Fig 3C also anti-FLAG, blot anti-MYC); lysis in 1% Triton X-100, 150mM NaCl, 10% Glycerol
row,Substance,binding
1,FLAG-tagged A20 C-terminal domain (human) (domain or fragment),binds
2,FLAG-tagged A20 N-terminal domain (human) (domain or fragment),binds

# No constants are given. Whether binding was seen depends on the method and setting. In cells and extracts the contact can be indirect. A result given as binding can be weak or reduced; the word gives no strength. Sequences can lack the tags named with a protein.
